Experimental data from US8445431B2, “Ligands having metal binding ability and targeting properties” (The Ohio State University, priority 2004, dated 2013).
Part of at least one peptide drawing is inferred or uncertain, most often the ends. Residues, ends and D or L forms follow the SMILES beside them.

Tested on: pUC19 supercoiled plasmid DNA
Assay: Plasmid DNA cleavage, agarose gel electrophoresis and quantitation
Assay type: biochemical
Experimental: Plasmid pUC19 (2686 bp) was purchased from New England Biolabs Inc. The plasmid was transformed into DH5α competent cells, amplified, and pure plasmid isolated using QIAGEN protocols. Fresh plasmid DNA (over 90-95% supercoiled) was prepared before each experiment to avoid contamination by any other form of plasmid DNA. In general, DNA cleavage experiments were performed with 50 μM base pair concentration of pUC19, 25 μM Cu-peptide, and 250 μM ascorbate in 10 mM Tris buffer, pH 7.4, at 37° C. A control reaction was carried out using the same conditions as the cleavage reaction, but lacking the Cu-peptide complex. The reactions were quenched with a loading buffer containing 0.5 M EDTA.
Agarose gel electrophoresis (0.8%) containing ethidium bromide was performed under standard conditions. DNA samples were run on horizontal gels in 1×TAE buffer for 90 min at […].
Quantitation of closed circular, nicked and linear DNA was made by densitometric analysis of ethidium bromide containing agarose gels. Quantitation was performed by fluorescence imaging by use of a Gel-Doc 1000 (BioRad) and data analysis with Multianalysis software (version 1.1) provided by the manufacturer using the volume quantitation method. In all cases, background fluorescence was subtracted by reference to a lane containing no DNA. A correction factor of 1.47 was used for supercoiled DNA, since the ability of ethidium bromide to intercalate into supercoiled DNA (form I) is decreased relative to nicked (form II) and linear DNA (form III). The fraction of each form of DNA was calculated by dividing the intensity of each band by the total intensities of all the bands in the lane. All results were obtained from experiments that were performed at least in triplicate.
Consequently, the reaction was considered in terms of the standard rate law shown in equation 3. The initial rate (V0) corresponding to less than 5% conversion was considered as a function of [complex]^+ (equation 4 and 5). Rate=V=d[DNA]/dt=kobs[complex]t^m (3) • where kobs=kn, [DNA] when t=0, V0=kobs[complex]0^m (4) and ln V0=m ln[complex]0+ln kobs (5) A plot of ln V0 versus ln [[GGH-Cu]^−]0 at constant DNA concentration produced a straight line relationship (R^2=0.99) (FIG. 27A).
Investigation of DNA linearization. Following cleavage, the fraction of full length linear DNA, f(III), is related to the number, n2, of double-strand breaks per molecule given by the first term of a Poisson distribution (equation 1). f(III)=n2exp(−n2) (1) The sum of single-strand, n1, and double-strand, n2, breaks per molecule (n1+n2) was determined from the fraction f(I) of supercoiled DNA remaining after treatment with the [peptide-Cu] reagent. f(I)=exp[−(n1+n2)] […] In these studies, both n1 and n2 were calculated by use of equations (1) and (2).

NCCCC[C@H](NC(=O)[C@H](Cc1c[nH]cn1)NC(=O)CNC(=O)[C@@H](N)CCCCN)C(=O)O [[KGHK-Cu]^+] (H-KGHK-OH; C-terminus assumed)
ratio n1/n2 of single-strand to double-strand breaks (Freifelder-Trumbo test, random if >100): 14.6±2.9 | time to quantitative production of nicked plasmid DNA (form II) ([DNA]=50 μM, complex 25 μM, ascorbate 250 μM): ≤ 6 min | k2, second-order rate constant of DNA cleavage (from ln V0 plots, with ascorbate): ~93 M⁻¹ s⁻¹ | concentration at which DNA cleavage activity is evident (in the presence of ascorbate): 10 µM | DNA cleavage products / pattern on gel (with ascorbate): Linear DNA was formed
